{"source": "PubChem BioAssay AID1224828 (NIAID, 2016)", "screen": "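Knock-downs that increase or decrease LPS-induced p65 nuclear translocation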 (primary screen)", "system": "mouse RAW264.7 G9 macrophage reporter cells (GFP-p65, Tnf promoter-mCherry)", "knock-down reagent": "siRNA pool against mouse genes, 100 nM", "timing": "2 days siRNA transfection, then 40 min LPS before fixation", "conditions": "LPS (Salmonella minnesota R595) at 10 ng/ml", "measured": "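Microscopy ratio of nuclear to perinuclear-ring GFP-p65 signal, scaled to the plate median; gene score is the average of two replicate robust z-scores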", "scale": "p65 translocation robust z-score: higher = more nuclear NF-kappaB p65 after LPS than the plate median; nuclear/cytoplasmic p65 ratio: higher = more nuclear NF-kappaB p65", "hit rule": "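Called active when z exceeds 3.3 or falls under -1.56 (median of Tlr4 controls), giving activity score of at least 50; no calls for control wells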", "calls": "active = hit (p65 shift raised or lowered); inactive = no clear change", "note": "Shown is a random part of about 17,000 reagents tested. 762 of all reagents (4.5%) count as active. 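Active calls include both raised and lowered p65 entry, mostly lowered; wells with fewer than 50 cells lack a z-score.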 The raw values are shown without normalisation. Unmarked entries are inactive. Reagents against one gene are numbered here. A reagent listed more than once was tested more than once; the source does not tell the runs apart."}
{"gene": "Pde4a (phosphodiesterase 4A, cAMP specific)", "pool no.": 1, "p65 translocation robust z-score": 0.09, "nuclear/cytoplasmic p65 ratio, rep 1": 1.48, "nuclear/cytoplasmic p65 ratio, rep 2": 1.4, "low cell count flag": "enough cells to score"}
{"gene": "Pelo (pelota mRNA surveillance and ribosome rescue factor)", "pool no.": 1, "nuclear/cytoplasmic p65 ratio, rep 1": 1.11, "nuclear/cytoplasmic p65 ratio, rep 2": 1.04, "low cell count flag": "fewer than 50 cells per well; well left out of scoring"}
{"gene": "Ftdc2 (ferritin domain containing 2)", "pool no.": 1, "p65 translocation robust z-score": 0.62, "nuclear/cytoplasmic p65 ratio, rep 1": 1.55, "nuclear/cytoplasmic p65 ratio, rep 2": 1.44, "low cell count flag": "enough cells to score"}
{"gene": "Tdp2 (tyrosyl-DNA phosphodiesterase 2)", "pool no.": 1, "p65 translocation robust z-score": -0.14, "nuclear/cytoplasmic p65 ratio, rep 1": 1.51, "nuclear/cytoplasmic p65 ratio, rep 2": 1.55, "low cell count flag": "enough cells to score"}
{"gene": "F8 (coagulation factor VIII)", "pool no.": 1, "p65 translocation robust z-score": 1.16, "nuclear/cytoplasmic p65 ratio, rep 1": 1.6, "nuclear/cytoplasmic p65 ratio, rep 2": 1.54, "low cell count flag": "enough cells to score"}
{"gene": "Setd1a (SET domain containing 1A)", "pool no.": 1, "p65 translocation robust z-score": -1.36, "nuclear/cytoplasmic p65 ratio, rep 1": 1.48, "nuclear/cytoplasmic p65 ratio, rep 2": 1.35, "low cell count flag": "enough cells to score"}
{"gene": "Setd1a (SET domain containing 1A)", "pool no.": 2, "p65 translocation robust z-score": -1.34, "nuclear/cytoplasmic p65 ratio, rep 1": 1.32, "nuclear/cytoplasmic p65 ratio, rep 2": 1.69, "low cell count flag": "enough cells to score"}
{"gene": "Krt6a (keratin 6A)", "pool no.": 1, "p65 translocation robust z-score": -1.35, "nuclear/cytoplasmic p65 ratio, rep 1": 1.22, "nuclear/cytoplasmic p65 ratio, rep 2": 1.28, "low cell count flag": "enough cells to score"}
{"gene": "Ripk2 (receptor (TNFRSF)-interacting serine-threonine kinase 2)", "pool no.": 1, "p65 translocation robust z-score": "-2.19 (active)", "nuclear/cytoplasmic p65 ratio, rep 1": 1.25, "nuclear/cytoplasmic p65 ratio, rep 2": 1.17, "low cell count flag": "enough cells to score"}
{"gene": "Lce1c (late cornified envelope 1C)", "pool no.": 1, "p65 translocation robust z-score": 1.23, "nuclear/cytoplasmic p65 ratio, rep 1": 1.57, "nuclear/cytoplasmic p65 ratio, rep 2": 1.76, "low cell count flag": "enough cells to score"}
{"gene": "Lce1c (late cornified envelope 1C)", "pool no.": 1, "p65 translocation robust z-score": -0.08, "nuclear/cytoplasmic p65 ratio, rep 1": 1.44, "nuclear/cytoplasmic p65 ratio, rep 2": 1.53, "low cell count flag": "enough cells to score"}
{"gene": "Slamf1 (signaling lymphocytic activation molecule family member 1)", "pool no.": 1, "p65 translocation robust z-score": -0.5, "nuclear/cytoplasmic p65 ratio, rep 1": 1.45, "nuclear/cytoplasmic p65 ratio, rep 2": 1.51, "low cell count flag": "enough cells to score"}
{"gene": "Pou6f1 (POU domain, class 6, transcription factor 1)", "pool no.": 1, "p65 translocation robust z-score": -0.56, "nuclear/cytoplasmic p65 ratio, rep 1": 1.37, "nuclear/cytoplasmic p65 ratio, rep 2": 1.38, "low cell count flag": "enough cells to score"}

2 successive reagents already listed, quoted:
{"gene": "Lce1c (late cornified envelope 1C)", "pool no.": 1, "p65 translocation robust z-score": -0.08, "nuclear/cytoplasmic p65 ratio, rep 1": 1.44, "nuclear/cytoplasmic p65 ratio, rep 2": 1.53, "low cell count flag": "enough cells to score"}
{"gene": "Slamf1 (signaling lymphocytic activation molecule family member 1)", "pool no.": 1, "p65 translocation robust z-score": -0.5, "nuclear/cytoplasmic p65 ratio, rep 1": 1.45, "nuclear/cytoplasmic p65 ratio, rep 2": 1.51, "low cell count flag": "enough cells to score"}

The results go on.
{"gene": "G6pc1 (glucose-6-phosphatase catalytic subunit 1)", "pool no.": 1, "p65 translocation robust z-score": 0.86, "nuclear/cytoplasmic p65 ratio, rep 1": 1.51, "nuclear/cytoplasmic p65 ratio, rep 2": 1.52, "low cell count flag": "enough cells to score"}
{"gene": "Zfp369 (zinc finger protein 369)", "pool no.": 1, "p65 translocation robust z-score": 0.54, "nuclear/cytoplasmic p65 ratio, rep 1": 1.44, "nuclear/cytoplasmic p65 ratio, rep 2": 1.35, "low cell count flag": "enough cells to score"}
{"gene": "Rxfp4 (relaxin family peptide receptor 4)", "pool no.": 1, "p65 translocation robust z-score": 0.26, "nuclear/cytoplasmic p65 ratio, rep 1": 1.56, "nuclear/cytoplasmic p65 ratio, rep 2": 1.61, "low cell count flag": "enough cells to score"}
{"gene": "Vax1 (ventral anterior homeobox 1)", "pool no.": 1, "nuclear/cytoplasmic p65 ratio, rep 1": 1.19, "nuclear/cytoplasmic p65 ratio, rep 2": 0, "low cell count flag": "fewer than 50 cells per well; well left out of scoring"}
{"gene": "Hspb2 (heat shock protein family B (small) member 2)", "pool no.": 1, "p65 translocation robust z-score": 0.57, "nuclear/cytoplasmic p65 ratio, rep 1": 1.46, "nuclear/cytoplasmic p65 ratio, rep 2": 1.5, "low cell count flag": "enough cells to score"}
{"gene": "Satb1 (special AT-rich sequence binding protein 1)", "pool no.": 1, "p65 translocation robust z-score": -0.59, "nuclear/cytoplasmic p65 ratio, rep 1": 1.27, "nuclear/cytoplasmic p65 ratio, rep 2": 1.21, "low cell count flag": "enough cells to score"}
{"gene": "Zfp958 (zinc finger protein 958)", "pool no.": 1, "p65 translocation robust z-score": -0.01, "nuclear/cytoplasmic p65 ratio, rep 1": 1.58, "nuclear/cytoplasmic p65 ratio, rep 2": 1.83, "low cell count flag": "enough cells to score"}
{"gene": "Cyc1 (cytochrome c-1)", "pool no.": 1, "p65 translocation robust z-score": 1.15, "nuclear/cytoplasmic p65 ratio, rep 1": 1.67, "nuclear/cytoplasmic p65 ratio, rep 2": 1.5, "low cell count flag": "enough cells to score"}
{"gene": "Padi6 (peptidyl arginine deiminase, type VI)", "pool no.": 1, "p65 translocation robust z-score": 0.69, "nuclear/cytoplasmic p65 ratio, rep 1": 1.52, "nuclear/cytoplasmic p65 ratio, rep 2": 1.33, "low cell count flag": "enough cells to score"}
{"gene": "Pde4c (phosphodiesterase 4C, cAMP specific)", "pool no.": 1, "p65 translocation robust z-score": -1.07, "nuclear/cytoplasmic p65 ratio, rep 1": 1.31, "nuclear/cytoplasmic p65 ratio, rep 2": 1.27, "low cell count flag": "enough cells to score"}
{"gene": "Ank2 (ankyrin 2, brain)", "pool no.": 1, "p65 translocation robust z-score": 0.8, "nuclear/cytoplasmic p65 ratio, rep 1": 1.75, "nuclear/cytoplasmic p65 ratio, rep 2": 1.78, "low cell count flag": "enough cells to score"}
{"gene": "Snrnp25 (small nuclear ribonucleoprotein 25 (U11/U12))", "pool no.": 1, "p65 translocation robust z-score": 0.05, "nuclear/cytoplasmic p65 ratio, rep 1": 1.32, "nuclear/cytoplasmic p65 ratio, rep 2": 1.26, "low cell count flag": "enough cells to score"}
{"gene": "Cpeb2 (cytoplasmic polyadenylation element binding protein 2)", "pool no.": 1, "p65 translocation robust z-score": 0.5, "nuclear/cytoplasmic p65 ratio, rep 1": 1.67, "nuclear/cytoplasmic p65 ratio, rep 2": 1.84, "low cell count flag": "enough cells to score"}
{"gene": "Pik3c3 (phosphatidylinositol 3-kinase catalytic subunit type 3)", "pool no.": 1, "p65 translocation robust z-score": 0.75, "nuclear/cytoplasmic p65 ratio, rep 1": 1.52, "nuclear/cytoplasmic p65 ratio, rep 2": 1.58, "low cell count flag": "enough cells to score"}
